Drawing on PMC10933316, this text covers binding for 17 molecules.

Amino acid sequences for entries named in this document (tags omitted).
UniProt Q9D4H8: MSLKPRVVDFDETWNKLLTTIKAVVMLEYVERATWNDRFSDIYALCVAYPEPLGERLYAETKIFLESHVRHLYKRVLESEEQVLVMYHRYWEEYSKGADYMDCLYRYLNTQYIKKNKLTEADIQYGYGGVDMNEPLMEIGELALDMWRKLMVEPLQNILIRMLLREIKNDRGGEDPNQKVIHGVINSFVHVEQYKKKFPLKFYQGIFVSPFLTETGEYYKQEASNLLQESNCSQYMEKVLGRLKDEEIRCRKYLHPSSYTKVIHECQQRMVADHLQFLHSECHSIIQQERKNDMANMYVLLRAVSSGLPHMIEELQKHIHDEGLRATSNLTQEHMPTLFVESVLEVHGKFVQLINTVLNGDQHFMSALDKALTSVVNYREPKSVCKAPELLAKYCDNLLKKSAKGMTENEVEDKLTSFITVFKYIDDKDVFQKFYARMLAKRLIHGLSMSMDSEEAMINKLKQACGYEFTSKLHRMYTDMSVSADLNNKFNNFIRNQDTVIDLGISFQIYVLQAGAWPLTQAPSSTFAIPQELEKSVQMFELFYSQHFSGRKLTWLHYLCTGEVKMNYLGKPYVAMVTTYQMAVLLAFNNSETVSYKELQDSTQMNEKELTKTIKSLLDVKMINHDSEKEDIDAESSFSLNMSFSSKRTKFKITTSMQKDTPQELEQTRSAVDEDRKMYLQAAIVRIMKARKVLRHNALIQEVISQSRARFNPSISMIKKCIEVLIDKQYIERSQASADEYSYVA
UniProt Q6PDQ2: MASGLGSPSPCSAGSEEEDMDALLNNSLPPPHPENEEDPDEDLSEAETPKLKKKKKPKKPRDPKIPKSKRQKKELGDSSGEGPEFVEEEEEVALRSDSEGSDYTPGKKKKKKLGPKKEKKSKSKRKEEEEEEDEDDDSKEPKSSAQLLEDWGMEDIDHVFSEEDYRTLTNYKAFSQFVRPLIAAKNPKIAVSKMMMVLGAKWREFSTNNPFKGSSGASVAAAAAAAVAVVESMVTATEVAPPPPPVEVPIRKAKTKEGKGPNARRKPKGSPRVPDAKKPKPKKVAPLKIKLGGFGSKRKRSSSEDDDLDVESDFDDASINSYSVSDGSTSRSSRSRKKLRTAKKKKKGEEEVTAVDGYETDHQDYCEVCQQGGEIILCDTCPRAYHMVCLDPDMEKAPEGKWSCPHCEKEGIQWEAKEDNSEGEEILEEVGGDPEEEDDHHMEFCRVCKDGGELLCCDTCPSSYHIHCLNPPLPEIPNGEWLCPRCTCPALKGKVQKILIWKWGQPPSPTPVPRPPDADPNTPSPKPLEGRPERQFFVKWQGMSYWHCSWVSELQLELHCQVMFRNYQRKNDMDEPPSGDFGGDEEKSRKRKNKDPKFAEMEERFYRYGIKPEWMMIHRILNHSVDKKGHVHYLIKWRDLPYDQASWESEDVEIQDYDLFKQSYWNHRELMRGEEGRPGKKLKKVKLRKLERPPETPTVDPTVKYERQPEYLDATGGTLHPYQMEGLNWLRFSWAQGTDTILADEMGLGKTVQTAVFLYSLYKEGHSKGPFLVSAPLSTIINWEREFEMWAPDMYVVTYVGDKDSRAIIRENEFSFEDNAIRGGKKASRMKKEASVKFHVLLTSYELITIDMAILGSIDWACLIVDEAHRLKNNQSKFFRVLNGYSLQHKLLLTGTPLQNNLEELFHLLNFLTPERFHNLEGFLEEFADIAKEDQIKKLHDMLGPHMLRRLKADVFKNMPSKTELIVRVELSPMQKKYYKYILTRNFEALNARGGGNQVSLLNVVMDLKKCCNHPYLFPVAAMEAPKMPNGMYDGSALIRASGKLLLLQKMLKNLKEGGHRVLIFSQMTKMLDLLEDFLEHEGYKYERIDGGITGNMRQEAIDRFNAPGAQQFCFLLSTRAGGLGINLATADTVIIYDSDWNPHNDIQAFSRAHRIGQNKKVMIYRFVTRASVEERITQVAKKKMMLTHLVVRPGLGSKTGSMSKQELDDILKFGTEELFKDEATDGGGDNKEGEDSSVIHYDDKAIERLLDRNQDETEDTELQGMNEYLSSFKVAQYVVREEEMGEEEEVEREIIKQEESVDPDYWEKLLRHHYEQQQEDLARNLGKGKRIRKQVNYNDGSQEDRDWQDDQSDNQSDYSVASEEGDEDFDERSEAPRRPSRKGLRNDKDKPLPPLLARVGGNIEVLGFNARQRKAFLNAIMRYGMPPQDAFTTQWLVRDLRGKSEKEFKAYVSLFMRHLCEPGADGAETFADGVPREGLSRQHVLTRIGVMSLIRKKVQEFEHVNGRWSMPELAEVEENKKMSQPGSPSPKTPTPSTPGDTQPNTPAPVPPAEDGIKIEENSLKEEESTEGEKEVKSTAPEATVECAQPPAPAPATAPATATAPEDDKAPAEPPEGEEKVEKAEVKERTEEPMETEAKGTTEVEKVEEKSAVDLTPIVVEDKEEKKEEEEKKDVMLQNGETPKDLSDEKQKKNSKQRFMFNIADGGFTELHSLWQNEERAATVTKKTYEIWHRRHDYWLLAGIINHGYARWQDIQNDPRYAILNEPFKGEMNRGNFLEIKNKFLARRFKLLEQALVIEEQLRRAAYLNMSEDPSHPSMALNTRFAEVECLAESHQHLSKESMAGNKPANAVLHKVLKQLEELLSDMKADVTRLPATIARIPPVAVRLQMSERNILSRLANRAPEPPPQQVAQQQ
UniProt Q61188: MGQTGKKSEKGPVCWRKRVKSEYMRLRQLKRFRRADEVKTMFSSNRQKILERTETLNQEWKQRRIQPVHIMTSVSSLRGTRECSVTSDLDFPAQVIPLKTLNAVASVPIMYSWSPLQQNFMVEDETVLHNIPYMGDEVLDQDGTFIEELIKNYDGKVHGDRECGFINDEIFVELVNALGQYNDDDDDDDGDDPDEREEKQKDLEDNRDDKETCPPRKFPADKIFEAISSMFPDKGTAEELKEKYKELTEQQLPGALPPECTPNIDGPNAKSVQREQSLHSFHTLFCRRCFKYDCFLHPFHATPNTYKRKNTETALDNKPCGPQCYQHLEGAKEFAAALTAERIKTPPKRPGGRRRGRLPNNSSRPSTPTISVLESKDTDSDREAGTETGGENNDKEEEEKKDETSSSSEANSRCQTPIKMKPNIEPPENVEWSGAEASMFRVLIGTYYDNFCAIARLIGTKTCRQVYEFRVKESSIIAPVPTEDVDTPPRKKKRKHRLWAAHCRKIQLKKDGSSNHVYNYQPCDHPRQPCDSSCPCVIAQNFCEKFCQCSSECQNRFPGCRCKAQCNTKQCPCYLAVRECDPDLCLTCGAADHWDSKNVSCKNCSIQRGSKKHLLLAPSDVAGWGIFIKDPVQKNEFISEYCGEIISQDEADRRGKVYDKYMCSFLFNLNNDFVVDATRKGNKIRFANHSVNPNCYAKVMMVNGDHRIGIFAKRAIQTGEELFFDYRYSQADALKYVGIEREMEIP
UniProt E9Q7G0: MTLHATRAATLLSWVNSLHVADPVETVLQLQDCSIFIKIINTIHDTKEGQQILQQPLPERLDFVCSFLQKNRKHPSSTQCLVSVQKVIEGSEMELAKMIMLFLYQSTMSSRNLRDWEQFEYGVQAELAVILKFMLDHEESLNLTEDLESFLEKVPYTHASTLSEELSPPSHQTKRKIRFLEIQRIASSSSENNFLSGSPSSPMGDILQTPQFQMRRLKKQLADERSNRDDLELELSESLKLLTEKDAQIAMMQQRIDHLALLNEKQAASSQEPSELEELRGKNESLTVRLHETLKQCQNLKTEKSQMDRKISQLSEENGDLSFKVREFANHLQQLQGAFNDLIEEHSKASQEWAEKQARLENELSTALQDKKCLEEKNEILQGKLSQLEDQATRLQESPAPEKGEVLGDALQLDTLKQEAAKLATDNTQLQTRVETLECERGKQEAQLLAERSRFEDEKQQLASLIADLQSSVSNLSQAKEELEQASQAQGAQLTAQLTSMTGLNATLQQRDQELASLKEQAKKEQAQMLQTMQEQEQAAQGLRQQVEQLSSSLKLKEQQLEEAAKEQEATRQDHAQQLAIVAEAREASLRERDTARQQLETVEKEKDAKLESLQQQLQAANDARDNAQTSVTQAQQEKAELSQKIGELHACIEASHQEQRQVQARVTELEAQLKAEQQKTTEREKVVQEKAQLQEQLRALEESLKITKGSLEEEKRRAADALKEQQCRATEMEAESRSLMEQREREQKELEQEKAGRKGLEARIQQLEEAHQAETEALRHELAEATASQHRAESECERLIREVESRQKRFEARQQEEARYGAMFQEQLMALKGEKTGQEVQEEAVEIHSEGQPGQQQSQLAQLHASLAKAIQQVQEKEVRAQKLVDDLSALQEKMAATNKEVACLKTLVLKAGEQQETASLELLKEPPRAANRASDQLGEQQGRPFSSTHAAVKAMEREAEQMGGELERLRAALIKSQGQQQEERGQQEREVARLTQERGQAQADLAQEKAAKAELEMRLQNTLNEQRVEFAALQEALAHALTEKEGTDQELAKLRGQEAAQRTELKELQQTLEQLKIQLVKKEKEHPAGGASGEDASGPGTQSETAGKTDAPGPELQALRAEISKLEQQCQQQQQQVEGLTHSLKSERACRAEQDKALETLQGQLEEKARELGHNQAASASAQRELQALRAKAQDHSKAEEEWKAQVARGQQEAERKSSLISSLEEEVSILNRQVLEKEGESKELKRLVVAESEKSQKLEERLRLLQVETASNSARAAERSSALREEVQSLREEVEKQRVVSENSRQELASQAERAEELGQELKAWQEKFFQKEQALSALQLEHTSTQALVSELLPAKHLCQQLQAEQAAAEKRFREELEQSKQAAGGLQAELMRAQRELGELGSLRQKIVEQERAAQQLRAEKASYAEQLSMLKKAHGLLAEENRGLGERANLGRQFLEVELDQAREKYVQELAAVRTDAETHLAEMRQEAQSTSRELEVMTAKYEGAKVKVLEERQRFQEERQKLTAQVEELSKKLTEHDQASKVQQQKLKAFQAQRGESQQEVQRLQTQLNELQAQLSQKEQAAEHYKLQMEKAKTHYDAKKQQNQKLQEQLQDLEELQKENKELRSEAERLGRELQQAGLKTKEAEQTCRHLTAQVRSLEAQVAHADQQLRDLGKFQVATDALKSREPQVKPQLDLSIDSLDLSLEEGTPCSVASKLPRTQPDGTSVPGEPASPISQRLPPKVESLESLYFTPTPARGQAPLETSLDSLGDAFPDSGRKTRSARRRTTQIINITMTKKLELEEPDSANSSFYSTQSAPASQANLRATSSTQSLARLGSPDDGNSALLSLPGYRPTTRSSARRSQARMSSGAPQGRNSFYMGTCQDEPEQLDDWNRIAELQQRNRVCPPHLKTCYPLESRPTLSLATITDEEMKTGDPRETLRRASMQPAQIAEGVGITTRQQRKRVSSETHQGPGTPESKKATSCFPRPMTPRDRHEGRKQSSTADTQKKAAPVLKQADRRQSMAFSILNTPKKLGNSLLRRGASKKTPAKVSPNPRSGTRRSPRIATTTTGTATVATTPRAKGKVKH
UniProt O09106: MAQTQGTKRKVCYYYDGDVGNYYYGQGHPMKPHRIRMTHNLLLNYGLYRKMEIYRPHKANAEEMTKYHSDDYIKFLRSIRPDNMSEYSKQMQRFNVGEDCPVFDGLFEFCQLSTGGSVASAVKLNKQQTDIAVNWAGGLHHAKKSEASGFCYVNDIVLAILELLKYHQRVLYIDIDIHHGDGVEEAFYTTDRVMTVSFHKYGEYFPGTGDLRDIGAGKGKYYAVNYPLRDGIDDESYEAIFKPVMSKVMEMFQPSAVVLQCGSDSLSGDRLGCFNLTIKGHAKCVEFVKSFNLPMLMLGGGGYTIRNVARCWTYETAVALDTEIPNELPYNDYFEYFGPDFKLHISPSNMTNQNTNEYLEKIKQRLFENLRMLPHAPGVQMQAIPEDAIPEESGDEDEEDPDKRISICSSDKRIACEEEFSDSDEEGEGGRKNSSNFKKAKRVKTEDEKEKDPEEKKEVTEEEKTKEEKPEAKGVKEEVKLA
UniProt Q60737: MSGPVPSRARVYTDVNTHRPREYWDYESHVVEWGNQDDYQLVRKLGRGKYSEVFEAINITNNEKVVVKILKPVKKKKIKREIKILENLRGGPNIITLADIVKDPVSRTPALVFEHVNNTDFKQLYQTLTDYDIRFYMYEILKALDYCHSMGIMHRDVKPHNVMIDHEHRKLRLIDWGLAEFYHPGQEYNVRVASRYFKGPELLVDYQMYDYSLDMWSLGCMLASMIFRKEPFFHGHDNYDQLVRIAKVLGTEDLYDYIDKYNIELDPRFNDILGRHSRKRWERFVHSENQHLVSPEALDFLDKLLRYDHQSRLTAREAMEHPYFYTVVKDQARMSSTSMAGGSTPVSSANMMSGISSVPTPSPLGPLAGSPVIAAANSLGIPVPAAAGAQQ

No constants are given. Whether binding was seen depends on the method and setting. Binding seen in cells or lysates may run through a third protein. A yes stands for co-enrichment or nearness to the bait. Other partners may have been found.

The target of assay [1] is Cullin2 (CUL2), endogenous in mouse ESCs (mouse (endogenous in ESCs)) (UniProt Q9D4H8). In words: affinity purification with mass spectrometry; CUL2-chromatin-IP: DSP-crosslinked, MNase-digested chromatin of ESC + H/F-PRAMEL7WT against parental ESCs, Cullin2 antibody and Dynabeads protein A, LC-MS/MS; fold changes ≥ 3; two independent experiments.
Assay [2] addresses T1, H/F-PRAMEL7ΔN (ESC line) (mouse) (UniProt Q810Y8).
T1 sequence: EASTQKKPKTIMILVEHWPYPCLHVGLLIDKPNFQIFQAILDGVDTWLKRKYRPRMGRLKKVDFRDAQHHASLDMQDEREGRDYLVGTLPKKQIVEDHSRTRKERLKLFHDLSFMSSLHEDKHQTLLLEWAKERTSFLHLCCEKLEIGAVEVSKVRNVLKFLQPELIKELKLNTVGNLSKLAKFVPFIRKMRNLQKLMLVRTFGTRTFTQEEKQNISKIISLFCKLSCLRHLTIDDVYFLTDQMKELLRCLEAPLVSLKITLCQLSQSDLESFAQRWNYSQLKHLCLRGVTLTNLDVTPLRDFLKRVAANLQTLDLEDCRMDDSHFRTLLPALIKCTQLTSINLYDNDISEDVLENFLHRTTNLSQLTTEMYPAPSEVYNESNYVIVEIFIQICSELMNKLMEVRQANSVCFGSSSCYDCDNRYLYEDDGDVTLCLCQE
In words: affinity purification with mass spectrometry; HA-IP (anti-HA magnetic beads, overnight, 4 °C) from MNase-treated extracts (150 mM NaCl) of ESC + H/F-PRAMEL7WT, ESC + H/F-PRAMEL7ΔN and parental ESCs; on-bead tryptic digestion, LC-MS/MS; two independent experiments.

In the case of UBA1 (from UniProt Q02053 1-1058), the binding result in assay [1] and in assay [2] was “binds” throughout.

CHD4 (from UniProt Q6PDQ2 1-1915): the binding result in assay [2] is listed as “binds”.

As for RUVBL1 (from UniProt P60122 1-456), in assay [2], the binding result is “binds”. The same measure, in the same setting: the same measure for RUVBL2 (from UniProt Q9WTM5 1-463): “binds”; for EZH2 (from UniProt Q61188 1-746): “binds”.

With MSH6 (from UniProt P54276 1-1358), the binding result in assay [1] and in assay [2] was “binds” throughout. Take NUMA1 (from UniProt E9Q7G0 1-2094): the binding entry in assay [1] and in assay [2] was “binds” each time. Turning to TDH (mouse (endogenous in ESCs)), the binding result in assay [2] is on record as “binds”. Same read-out and setting: the same measure for HDAC1 (from UniProt O09106 1-482): “binds”; for CSNK2A1 (from UniProt Q60737 1-391): “binds”.

On to “DNA methyltransferase 1 (DNMT1) (from UniProt P13864 1-1620)”, for which the binding entry in assay [1] and in assay [2] was “binds” in each case. As to MTA2 (from UniProt Q9R190 1-668), the binding entry in assay [2] is reported as “binds”.

B1: SIN3A (protein, UniProt Q60520 1-1274)
chain: MKRRLDDQESPVYAAQQRRIPGSTEAFSHQHRVLAPAPPVYEAVSETMQSATGIQYSVAPNYQVSAVPQSSGSHGPAIAAVHSSHHHPTAVQPHGGQVVQSHAHPAPPVAPVQGQQQFQRLKVEDALSYLDQVKLQFGSQPQVYNDFLDIMKEFKSQSIDTPGVISRVSQLFKGHPDLIMGFNTFLPPGYKIEVQTNDMVNVTTPGQVHQIPTHGIQPQPQPPPQHPSQPSSQSAPTPAQPAPQPTAAKVSKPSQLQAHTPASQQTPPLPPYASPRSPPVQPHTPVTISLGTAPSLQNNQPVEFNHAINYVNKIKNRFQGQPDIYKAFLEILHTYQKEQRNAKEAGGNYTPALTEQEVYAQVARLFKNQEDLLSEFGQFLPDANSSVLLSKTTAEKVDSVRNDHGGTVKKPQLNNKPQRPSQNGCQIRRHSGTGATPPVKKKPKLMSLKESSMADASKHGVGTESLFFDKVRKALRSAEAYENFLRCLVIFNQEVISRAELVQLVSPFLGKFPELFNWFKNFLGYKESVHLESFPKERATEGIAMEIDYASCKRLGSSYRALPKSYQQPKCTGRTPLCKEVLNDTWVSFPSWSEDSTFVSSKKTQYEEHIYRCEDERFELDVVLETNLATIRVLEAIQKKLSRLSAEEQAKFRLDNTLGGTSEVIHRKALQRIYADKAADIIDGLRKNPSIAVPIVLKRLKMKEEEWREAQRGFNKVWREQNEKYYLKSLDHQGINFKQNDTKVLRSKSLLNEIESIYDERQEQATEENAGVPVGPHLSLAYEDKQILEDAAALIIHHVKRQTGIQKEDKYKIKQIMHHFIPDLLFAQRGDLSDVEEEEEEEMDVDEATGAPKKHNGVGGSPPKSKLLFSNTAAQKLRGMDEVYNLFYVNNNWYIFMRLHQILCLRLLRICSQAERQIEEENREREWEREVLGIKRDKSDSPAIQLRLKEPMDVDVEDYYPAFLDMVRSLLDGNIDSSQYEDSLREMFTIHAYIAFTMDKLIQSIVRQLQHIVSDEVCVQVTDLYLAENNNGATGGQLNSQTSRSLLESAYQRKAEQLMSDENCFKLMFIQSQGQVQLTVELLDTEEENSDDPVEAERWSDYVERYMSSDTTSPELREHLAQKPVFLPRNLRRIRKCQRGREQQEKEGKEGNSKKTMENVESLDKLECRFKLNSYKMVYVIKSEDYMYRRTALLRAHQSHERVSKRLHQRFQAWVDKWTKEHVPREMAAETSKWLMGEGLEGLVPCTTTCDTETLHFVSINKYRVKYGTVFKAP
B1: the binding result in assay [2] is “binds”.

B2: ALDH2 (protein, UniProt P47738 20-519)
chain: SAAATSAVPAPNHQPEVFCNQIFINNEWHDAVSRKTFPTVNPSTGEVICQVAEGNKEDVDKAVKAARAAFQLGSPWRRMDASDRGRLLYRLADLIERDRTYLAALETLDNGKPYVISYLVDLDMVLKCLRYYAGWADKYHGKTIPIDGDFFSYTRHEPVGVCGQIIPWNFPLLMQAWKLGPALATGNVVVMKVAEQTPLTALYVANLIKEAGFPPGVVNIVPGFGPTAGAAIASHEGVDKVAFTGSTEVGHLIQVAAGSSNLKRVTLELGGKSPNIIMSDADMDWAVEQAHFALFFNQGQCCCAGSRTFVQENVYDEFVERSVARAKSRVVGNPFDSRTEQGPQVDETQFKKILGYIKSGQQEGAKLLCGGGAAADRGYFIQPTVFGDVKDGMTIAKEEIFGPVMQILKFKTIEEVVGRANDSKYGLAAAVFTKDLDKANYLSQALQAGTVWINCYDVFGAQSPFGGYKMSGSGRELGEYGLQAYTEVKTVTVKVPQKNS
For the molecule B2, the binding entry in assay [1] and in assay [2] was “binds” throughout.

B3: NOP2 (protein, UniProt Q922K7 1-793)
chain: MGRKLDPTKKEKRGPGRKARKQKGAETELVRFLPAAGDENSKRLSSRARKRAAKRRAGSVDVPKPNKSPGIKTLPGELSKGAVQARGKKRPAPIQNSDGDEEEDSGEDDVVTQGDLWGSEDSDEDMVDDYGAASNSEDEEEKLLPIERAALKQKAQDATAGVLWNEEDTDEDEDDDGVSPESHPRKDDKAEGDLQINVEDEEAFVLPPAGETDQDGQAPDLQRVHKRIQDIVGVLRDFGAQREEGRSRAEYLSRLQKDLATYYSYGDFLLSKLMELFPLSELIEFLEANEVPRPITLRTNTLKTRRRDLAQLLINRGVNLDPLGKWSKSGLVVYDSSVPIGATPEYLAGHYMLQGASSMLPVMALAPQEHERILDMCCAPGGKTSYIAQLMKNTGVILANDANADRLKSVVGNLHRLGVTNTIISHYDGRQFPKVVGGFDRVLLDAPCSGTGVISKDPAVKTNKDEKDIQRCAHLQKELLLSAIDSVNAASKTGGYLVYCTCSITVEENEWVVDYALKKRNVRLVPTGLDFGQEGFTRFQARRFHPTLRSTRRFYPHTHNMDGFFIAKFKKFSNSIPQPHAGNSAAATPTEPDLKDQVTPKSENGSQPTKKARGAVKAKQQLLRQPHSKKPFQKLNGIAKGPGLSTEPSVPDAQVSTRPSQSAGNADVNSKRKRSEKLKQRGPKWKPSKEAAVPKPSAPSRVEDSGTPVPTPSEIRAAPRPKDCAPSLGKAKKKQKGKQQLAQQPANGAAPLKEDAVSKGPSAPFVSPHSSTRPPPAKRRKSMTKGNSQPLLS
Take B3: the binding result in assay [1] and in assay [2] was “binds” in each case.

B4: JARID2 (protein, UniProt Q62315 1-1234)
chain: MSKERPKRNIIQKKYDDSDGIPWSEERVVRKVLYLSLKEFKNAQKRQHGEGLAGSLKAVNGLLGNAQAKALGPASEQSENEKDDASQVSSTSNDVSSSDFEEGPSRKRPRLQAQRKFAQSQPNSPSTTPVKIVEPLLPPPATQISDLSKRKPKTEDFLTFLCLRGSPALPNSMVYFGSSQDEEDVEEEDDETEDVKATTNNASSSCQSTPRKGKTHKHVHNGHVFNGSSRSAREKEPAHKHRSKEATPGKEKHSEPRADSRREQASGAQPTAASAAASSAKGLAANHQPPPSHRSAQDLRKQVSKVNGVTRMSSLGAGTNSAKKIREVRPSPSKTVKYTATVTKGTVTYTKAKRELVKETKPNHHKPSSAVNHTISGKTESSNAKTRKQVLSLGGASKSTGPAASGLKASSRLNPKSCTKEVGGRQLREGLRNSKRRLEEAQQVDKPQSPPKKMKGVAGNAEAPGKKASAASGEKSLLNGHVKKEVPERSLERNRPKRAAAGKNMLGKQAHGKTEGTPCENRSTSQPESSHKPHDPQGKPEKGSGKSGWAAMDEIPVLRPSAKEFHDPLIYIESVRAQVEKYGMCRVIPPPDWRPECKLNDEMRFVTQIQHIHKLGRRWGPNVQRLACIKKHLRSQGITMDELPLIGGCELDLACFFRLINEMGGMQQVTDLKKWNKLADMLRIPKTAQDRLAKLQEAYCQYLLSYDSLSPEEHRRLEKEVLMEKEILEKRKGPLEGHTESDHHKFHSLPRFEPKNGLVHGVTPRNGFRSKLKEVGRAPLKTGRRRLFAQEKEVVKEEEEDKGVLNDFHKCIYKGRSVSLTTFYRTARNIMNMCFSKEPAPAEIEQEYWRLVEEKDCHVAVHCGKVDTNTHGSGFPVGKSEPFSRHGWNLTVLPNNTGSILRHLGAVPGVTIPWLNIGMVFSTSCWSRDQNHLPYIDYLHTGADCIWYCIPAEEENKLEDVVHTLLQGNGTPGLQMLESNVMISPEVLCKKGIKVHRTVQQSGQFVVCFPGSFVSKVCCGYNVSETVHFATTQWTSMGFETAKEMKRRHIAKPFSMEKLLYQIAQAEAKKENGPTLSTISALLDELRDTELRQRRLLFEAGLHSSARYGSHDGNSTVADGKKKPRKWLQLETSERRCQICQHLCYLSMVVQENENVVFCLECALRHVEKQKSCRGLKLMYRYDEEQIISLVNQICGKVSGKHGGIENCLNKPTPKRGPRKRATVDVPPSRLPSS
On to B4, for which the binding result in assay [2] was “binds”.

B5: MCM4 (protein, UniProt P49717 1-862)
chain: MSSPASTPSRRSSRRGRVTPTQSLRSEESRSSPNRRRRGEDSSTGELLPMPTSPGADLQSPPAQNALFSSPPQMHSLAIPLDFDVSSPLTYGTPSSRVEGTPRSGVRGTPVRQRPDLGSARKGLQVDLQSDGAAAEDIVPSEQSLGQKLVIWGTDVNVATCKENFQRFLQCFTDPLAKEEENVGIDITQPLYMQQLGEINITGEPFLNVNCEHIKSFSKNLYRQLISYPQEVIPTFDMAVNEIFFDRYPDSILEHQIQVRPFNALKTKSMRNLNPEDIDQLITISGMVIRTSQLIPEMQEAFFQCQVCAHTTRVEIDRGRIAEPCSCVHCHTTHSMALIHNRSFFSDKQMIKLQESPEDMPAGQTPHTIVLFAHNDLVDKVQPGDRVNVTGIYRAVPIRVNPRVSNVKSVYKTHIDVIHYRKTDAKRLHGLDEEAEQKLFSEKRVKLLKELSRKPDIYERLASALAPSIYEHEDIKKGILLQLFGGTRKDFSHTGRGKFRAEINILLCGDPGTSKSQLLQYVYNLVPRGQYTSGKGSSAVGLTAYVMKDPETRQLVLQTGALVLSDNGICCIDEFDKMNESTRSVLHEVMEQQTLSIAKAGIICQLNARTSVLAAANPIESQWNPKKTTIENIQLPHTLLSRFDLIFLMLDPQDEAYDRRLAHHLVSLYYQSEEQVEEEFLDMAVLKDYIAYAHSTIMPRLSEEASQALIEAYVNMRKIGSSRGMVSAYPRQLESLIRLAEAHAKVRFSNKVEAIDVEEAKRLHREALKQSATDPRTGIVDISILTTGMSATSRKRKEELAEALRKLILSKGKTPALKYQQLFEDIRGQSDTAITKDMFEEALRALADDDFLTVTGKTVRLL
Regarding B5, in assay [2], the binding result is reported as “binds”.
